Measurements as given in the supplement of paper PMC8728848.
This is one part of the list.

Key:
Assay in all cases: glycan array binding signal (z-score within array); higher = stronger binding
Conditions in all cases: glycan notation: IUPAC condensed, linker removed
[1] = target: Neu5Ac(a2-6)Gal(b1-4)GlcNAc(b1-3)Gal(b1-4)GlcNAc(b1-3)GalNAc
In short: (§1)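 The binding signal is a Z-score computed within each array. Data were drawn from 3228 arrays in the Consortium for Functional Glycomics database, restricted to those with a known protein sequence. Scores were averaged over arrays of the same protein sequence at different concentrations or buffers, and over linkers, and negative values can be taken as non-binding.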

[2] = target: Neu5Ac(a2-6)Gal(b1-4)GlcNAc(b1-3)Gal(b1-4)GlcNAc(b1-3)[Neu5Ac(a2-6)Gal(b1-4)GlcNAc(b1-3)Gal(b1-4)GlcNAc(b1-6)]GalNAc
In short: as §1

[3] = target: Neu5Ac(a2-6)Gal(b1-4)GlcNAc(b1-3)Gal(b1-4)GlcNAc(b1-6)[Gal(b1-3)]GalNAc
In short: as §1

[4] = target: Neu5Ac(a2-6)Gal(b1-4)GlcNAc(b1-3)Gal(b1-4)[Fuc(a1-3)]GlcNAc(b1-3)Gal(b1-4)[Fuc(a1-3)]GlcNAc
In short: as §1

[5] = target: Neu5Ac(a2-6)Gal(b1-4)GlcNAc(b1-3)GalNAc
In short: as §1

[6] = target: Neu5Ac(a2-6)Gal(b1-4)GlcNAc(b1-3)[Neu5Ac(a2-6)Gal(b1-4)GlcNAc(b1-6)]GalNAc
In short: as §1

[7] = target: Neu5Ac(a2-6)Gal(b1-4)GlcNAc(b1-6)GalNAc
In short: as §1

[8] = target: Neu5Ac(a2-6)Gal(b1-4)GlcNAc(b1-6)[Gal(b1-3)GlcNAc(b1-3)]Gal(b1-4)Glc
In short: as §1

[9] = target: Neu5Ac(a2-6)Gal(b1-4)GlcNAc(b1-6)[Gal(b1-3)]GalNAc
In short: as §1

[10] = target: Neu5Ac(a2-6)Gal(b1-4)GlcNAc6S
In short: as §1

Neu5Ac(a2-6)GalNAc = target: Neu5Ac(a2-6)GalNAc
In short: as §1

[11] = target: Neu5Ac(a2-6)GalNAc(b1-4)GlcNAc
In short: as §1

[12] = target: Neu5Ac(a2-6)GalNAc(b1-4)GlcNAc6S
In short: as §1

[13] = target: Neu5Ac(a2-6)GlcNAc(b1-4)GlcNAc
In short: as §1

[14] = target: Neu5Ac(a2-6)GlcNAc(b1-4)GlcNAc(b1-4)GlcNAc
In short: as §1

Neu5Ac(a2-8)Neu5Ac = target: Neu5Ac(a2-8)Neu5Ac
In short: as §1

[15] = target: Neu5Ac(a2-8)Neu5Ac(a2-3)Gal(b1-3)GalNAc(b1-4)[Neu5Ac(a2-3)]Gal(b1-4)Glc
In short: as §1

[16] = target: Neu5Ac(a2-8)Neu5Ac(a2-3)Gal(b1-3)GalNAc(b1-4)[Neu5Ac(a2-8)Neu5Ac(a2-3)]Gal(b1-4)Glc
In short: as §1

[17] = target: Neu5Ac(a2-8)Neu5Ac(a2-3)Gal(b1-4)Glc
In short: as §1

[18] = target: Neu5Ac(a2-8)Neu5Ac(a2-3)Gal(b1-4)GlcNAc
In short: as §1

[19] = target: Neu5Ac(a2-8)Neu5Ac(a2-3)[Gal(b1-3)GalNAc(b1-4)]Gal(b1-4)Glc
In short: as §1

[20] = target: Neu5Ac(a2-8)Neu5Ac(a2-3)[GalNAc(b1-4)]Gal(b1-4)Glc
In short: as §1

[21] = target: Neu5Ac(a2-8)Neu5Ac(a2-8)Neu5Ac
In short: as §1

[22] = target: Neu5Ac(a2-8)Neu5Ac(a2-8)Neu5Ac(a2-3)Gal(b1-4)Glc
In short: as §1

[23] = target: Neu5Ac(a2-8)Neu5Ac(a2-8)Neu5Ac(a2-3)[Gal(b1-3)GalNAc(b1-4)]Gal(b1-4)Glc
In short: as §1

[24] = target: Neu5Ac(a2-8)Neu5Ac(a2-8)Neu5Ac(a2-3)[GalNAc(b1-4)]Gal(b1-4)Glc
In short: as §1

[25] = target: Neu5Ac(a2-8)Neu5Ac(a2-8)Neu5Ac(a2-8)Neu5Ac(a2-3)[GalNAc(b1-4)]Gal(b1-4)Glc
In short: as §1

[26] = target: Neu5Ac(a2-8)Neu5Gc(a2-3)Gal(b1-4)GlcNAc
In short: as §1

[27] = target: Neu5Ac(b2-6)Gal(b1-4)GlcNAc
In short: as §1

Neu5Ac(b2-6)GalNAc = target: Neu5Ac(b2-6)GalNAc
In short: as §1

[28] = target: Neu5Ac9Ac(a2-3)Gal(b1-3)GlcNAc
In short: as §1

[29] = target: Neu5Ac9Ac(a2-3)Gal(b1-4)GlcNAc
In short: as §1

[30] = target: Neu5Ac9Ac(a2-6)Gal(b1-4)GlcNAc
In short: as §1

[31] = target: Neu5Gc(a2-3)Gal(b1-3)GlcNAc
In short: as §1

[32] = target: Neu5Gc(a2-3)Gal(b1-3)[Fuc(a1-4)]GlcNAc
In short: as §1

Neu5Gc(a2-3)Gal(b1-4)Glc = target: Neu5Gc(a2-3)Gal(b1-4)Glc
In short: as §1

[33] = target: Neu5Gc(a2-3)Gal(b1-4)GlcNAc
In short: as §1

[34] = target: Neu5Gc(a2-3)Gal(b1-4)GlcNAc(b1-3)Gal(b1-4)GlcNAc(b1-2)Man(a1-3)[Neu5Gc(a2-3)Gal(b1-4)GlcNAc(b1-3)Gal(b1-4)GlcNAc(b1-2)Man(a1-6)]Man(b1-4)GlcNAc(b1-4)GlcNAc
In short: as §1

[35] = target: Neu5Gc(a2-3)Gal(b1-4)[Fuc(a1-3)]GlcNAc
In short: as §1

[36] = target: Neu5Gc(a2-6)Gal(b1-4)GlcNAc
In short: as §1

Neu5Gc(a2-6)GalNAc = target: Neu5Gc(a2-6)GalNAc
In short: as §1

[37] = target: Neu5Gc(a2-8)Neu5Ac(a2-3)Gal(b1-4)GlcNAc
In short: as §1

[38] = target: Neu5Gc(a2-8)Neu5Gc(a2-3)Gal(b1-4)GlcNAc
In short: as §1

[39] = target: Neu5Gc(a2-8)Neu5Gc(a2-3)Gal(b1-4)GlcNAc(b1-3)Gal(b1-4)GlcNAc
In short: as §1

[40] = target: Neu5Gc(a2-8)Neu5Gc(a2-6)Gal(b1-4)GlcNAc
In short: as §1

[41] = target: Neu5Gc(b2-6)Gal(b1-4)GlcNAc
In short: as §1

B1: EUL D1A first (Oryza sativa) (protein)
chain: MFGFGHHHNQAPAAPSDPNQIFKIFCRANENYCLTVRDSAVVLAPVNPKDEHQHWFKDMRFSTKVKDGEGMPAFALVNKATGLAVKHSLGQSHPVKLVPFNPEYEDASVLWTESKDVGKGFRCIRMVNNTRLNLDAFHGDKDHGGVRDGTTVVLWEWCKGDNQSWKILPWGPEAHSSSPGAATILEQKLISEEDLNSAVDHHHHHH
glycan array binding signal (z-score) [1]: -0.07 | glycan array binding signal (z-score) [2]: 0.569 | glycan array binding signal (z-score) [3]: 1.9 | glycan array binding signal (z-score) [4]: -0.6 | glycan array binding signal (z-score) [5]: -0.718 | glycan array binding signal (z-score) [6]: 0.419 | glycan array binding signal (z-score) [7]: -0.155 | glycan array binding signal (z-score) [8]: -0.056 | glycan array binding signal (z-score) [9]: -0.012 | glycan array binding signal (z-score) [10]: -0.102 | glycan array binding signal (z-score) (Neu5Ac(a2-6)GalNAc): -0.509 | glycan array binding signal (z-score) [11]: -0.657 | glycan array binding signal (z-score) [12]: 0.002 | glycan array binding signal (z-score) [13]: -1.21 | glycan array binding signal (z-score) [14]: -0.07 | glycan array binding signal (z-score) (Neu5Ac(a2-8)Neu5Ac): 0.85 | glycan array binding signal (z-score) [15]: 1.17 | glycan array binding signal (z-score) [16]: -0.377 | glycan array binding signal (z-score) [17]: -0.984 | glycan array binding signal (z-score) [18]: -0.934 | glycan array binding signal (z-score) [19]: -0.821 | glycan array binding signal (z-score) [20]: 1.09 | glycan array binding signal (z-score) [21]: -0.007 | glycan array binding signal (z-score) [22]: 0.4 | glycan array binding signal (z-score) [23]: -0.295 | glycan array binding signal (z-score) [24]: -0.965 | glycan array binding signal (z-score) [25]: -0.11 | glycan array binding signal (z-score) [26]: -1.33 | glycan array binding signal (z-score) [27]: -0.988 | glycan array binding signal (z-score) (Neu5Ac(b2-6)GalNAc): 0.331 | glycan array binding signal (z-score) [28]: -0.753 | glycan array binding signal (z-score) [29]: 0.821 | glycan array binding signal (z-score) [30]: -0.177 | glycan array binding signal (z-score) [31]: -0.58 | glycan array binding signal (z-score) [32]: -1.08 | glycan array binding signal (z-score) (Neu5Gc(a2-3)Gal(b1-4)Glc): -0.152 | glycan array binding signal (z-score) [33]: 0.3 | glycan array binding signal (z-score) [34]: -0.561 | glycan array binding signal (z-score) [35]: -0.04 | glycan array binding signal (z-score) [36]: 1.52 | glycan array binding signal (z-score) (Neu5Gc(a2-6)GalNAc): 2.42 | glycan array binding signal (z-score) [37]: 0.111 | glycan array binding signal (z-score) [38]: -0.766 | glycan array binding signal (z-score) [39]: -0.654 | glycan array binding signal (z-score) [40]: 0.518 | glycan array binding signal (z-score) [41]: 0.976
